Measured values from paper PMC5660149, “Oligomerization and ATP stimulate condensin-mediated DNA compaction” (Scientific Reports, 2017).
These are yes or no findings as the source states them, for the method shown.

The chains behind the UniProt entries cited, without tags or fusion partners. Where a name states a change or a piece, a line headed by the entry shows the natural chain unless it says otherwise.
UniProt P38989: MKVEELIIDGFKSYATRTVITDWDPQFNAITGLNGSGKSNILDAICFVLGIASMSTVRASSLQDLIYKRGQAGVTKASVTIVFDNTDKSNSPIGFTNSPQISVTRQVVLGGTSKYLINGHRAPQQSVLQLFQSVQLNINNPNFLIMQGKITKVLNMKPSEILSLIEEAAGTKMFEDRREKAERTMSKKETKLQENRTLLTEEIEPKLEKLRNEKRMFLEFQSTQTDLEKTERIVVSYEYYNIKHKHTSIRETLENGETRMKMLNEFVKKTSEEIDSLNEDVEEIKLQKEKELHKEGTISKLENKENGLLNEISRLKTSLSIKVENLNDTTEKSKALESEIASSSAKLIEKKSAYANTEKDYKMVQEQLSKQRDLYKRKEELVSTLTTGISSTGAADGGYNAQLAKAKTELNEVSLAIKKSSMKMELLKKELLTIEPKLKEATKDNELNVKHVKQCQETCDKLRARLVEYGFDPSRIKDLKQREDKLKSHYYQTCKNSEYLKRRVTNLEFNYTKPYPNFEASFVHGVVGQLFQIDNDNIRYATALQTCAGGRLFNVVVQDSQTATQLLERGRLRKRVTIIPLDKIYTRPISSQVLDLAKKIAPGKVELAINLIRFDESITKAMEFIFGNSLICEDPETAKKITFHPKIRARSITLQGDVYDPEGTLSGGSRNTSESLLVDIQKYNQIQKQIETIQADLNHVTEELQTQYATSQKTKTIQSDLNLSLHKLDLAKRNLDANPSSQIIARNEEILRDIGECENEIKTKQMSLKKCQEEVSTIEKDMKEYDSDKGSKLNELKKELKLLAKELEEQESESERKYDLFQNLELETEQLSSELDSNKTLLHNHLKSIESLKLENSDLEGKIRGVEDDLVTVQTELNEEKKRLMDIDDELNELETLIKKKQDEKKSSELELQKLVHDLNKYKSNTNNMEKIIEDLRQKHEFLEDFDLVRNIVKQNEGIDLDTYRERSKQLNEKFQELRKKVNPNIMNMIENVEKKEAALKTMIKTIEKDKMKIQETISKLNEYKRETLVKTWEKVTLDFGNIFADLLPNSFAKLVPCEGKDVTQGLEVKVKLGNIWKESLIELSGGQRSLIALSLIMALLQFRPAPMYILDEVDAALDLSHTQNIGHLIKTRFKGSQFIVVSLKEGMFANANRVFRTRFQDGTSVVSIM
UniProt Q12267: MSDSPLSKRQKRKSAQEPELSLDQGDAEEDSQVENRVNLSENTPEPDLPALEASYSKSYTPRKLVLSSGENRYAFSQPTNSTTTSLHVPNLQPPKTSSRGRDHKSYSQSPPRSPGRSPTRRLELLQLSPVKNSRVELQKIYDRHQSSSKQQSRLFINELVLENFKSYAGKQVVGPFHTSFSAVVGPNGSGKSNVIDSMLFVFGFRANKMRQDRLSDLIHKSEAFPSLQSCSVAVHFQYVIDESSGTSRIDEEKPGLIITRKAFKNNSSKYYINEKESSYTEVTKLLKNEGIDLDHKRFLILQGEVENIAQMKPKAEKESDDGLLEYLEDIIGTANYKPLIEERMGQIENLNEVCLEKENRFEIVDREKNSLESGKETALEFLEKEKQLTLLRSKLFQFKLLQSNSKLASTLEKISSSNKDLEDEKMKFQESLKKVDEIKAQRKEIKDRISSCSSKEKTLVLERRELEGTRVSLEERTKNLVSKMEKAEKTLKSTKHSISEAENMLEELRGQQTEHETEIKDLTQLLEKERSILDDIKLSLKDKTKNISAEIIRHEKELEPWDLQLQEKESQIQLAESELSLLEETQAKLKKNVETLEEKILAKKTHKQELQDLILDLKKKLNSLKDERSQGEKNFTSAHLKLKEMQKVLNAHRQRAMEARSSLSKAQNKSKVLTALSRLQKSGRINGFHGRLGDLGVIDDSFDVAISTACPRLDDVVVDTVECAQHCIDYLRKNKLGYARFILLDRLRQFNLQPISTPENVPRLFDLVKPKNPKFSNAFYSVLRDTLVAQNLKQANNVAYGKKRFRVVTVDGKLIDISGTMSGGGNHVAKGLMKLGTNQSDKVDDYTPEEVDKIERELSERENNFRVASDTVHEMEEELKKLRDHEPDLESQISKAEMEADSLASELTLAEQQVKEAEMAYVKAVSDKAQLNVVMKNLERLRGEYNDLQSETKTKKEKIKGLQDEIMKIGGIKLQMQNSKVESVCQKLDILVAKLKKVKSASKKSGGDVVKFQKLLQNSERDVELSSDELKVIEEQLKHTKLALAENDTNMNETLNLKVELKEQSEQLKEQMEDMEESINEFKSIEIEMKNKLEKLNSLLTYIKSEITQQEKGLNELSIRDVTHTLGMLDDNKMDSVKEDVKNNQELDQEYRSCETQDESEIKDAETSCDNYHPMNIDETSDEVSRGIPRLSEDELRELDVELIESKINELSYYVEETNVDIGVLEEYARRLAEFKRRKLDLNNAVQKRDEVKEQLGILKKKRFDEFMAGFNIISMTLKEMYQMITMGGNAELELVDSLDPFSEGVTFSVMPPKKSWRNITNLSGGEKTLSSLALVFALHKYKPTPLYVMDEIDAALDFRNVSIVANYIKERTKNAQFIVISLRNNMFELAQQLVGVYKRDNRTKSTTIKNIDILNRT
UniProt P38170: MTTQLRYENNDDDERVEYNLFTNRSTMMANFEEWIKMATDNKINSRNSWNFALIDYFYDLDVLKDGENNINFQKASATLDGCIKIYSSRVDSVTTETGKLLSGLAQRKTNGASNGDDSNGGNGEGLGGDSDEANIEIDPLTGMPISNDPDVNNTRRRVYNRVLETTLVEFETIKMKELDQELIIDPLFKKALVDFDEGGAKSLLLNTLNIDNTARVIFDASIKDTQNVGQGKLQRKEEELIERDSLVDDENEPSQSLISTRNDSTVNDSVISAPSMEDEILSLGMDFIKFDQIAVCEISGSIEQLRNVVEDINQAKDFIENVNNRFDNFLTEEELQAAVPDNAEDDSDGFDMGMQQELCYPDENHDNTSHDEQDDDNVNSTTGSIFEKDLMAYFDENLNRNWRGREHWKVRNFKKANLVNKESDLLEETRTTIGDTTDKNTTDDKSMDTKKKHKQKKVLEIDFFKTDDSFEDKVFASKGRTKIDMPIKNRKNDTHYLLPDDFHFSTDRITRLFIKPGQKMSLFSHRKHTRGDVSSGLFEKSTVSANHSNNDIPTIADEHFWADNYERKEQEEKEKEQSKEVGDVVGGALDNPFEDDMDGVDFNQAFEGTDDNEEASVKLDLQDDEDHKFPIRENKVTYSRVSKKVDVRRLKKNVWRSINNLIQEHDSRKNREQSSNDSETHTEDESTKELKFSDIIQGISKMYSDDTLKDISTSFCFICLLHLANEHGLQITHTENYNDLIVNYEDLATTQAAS
UniProt Q06680: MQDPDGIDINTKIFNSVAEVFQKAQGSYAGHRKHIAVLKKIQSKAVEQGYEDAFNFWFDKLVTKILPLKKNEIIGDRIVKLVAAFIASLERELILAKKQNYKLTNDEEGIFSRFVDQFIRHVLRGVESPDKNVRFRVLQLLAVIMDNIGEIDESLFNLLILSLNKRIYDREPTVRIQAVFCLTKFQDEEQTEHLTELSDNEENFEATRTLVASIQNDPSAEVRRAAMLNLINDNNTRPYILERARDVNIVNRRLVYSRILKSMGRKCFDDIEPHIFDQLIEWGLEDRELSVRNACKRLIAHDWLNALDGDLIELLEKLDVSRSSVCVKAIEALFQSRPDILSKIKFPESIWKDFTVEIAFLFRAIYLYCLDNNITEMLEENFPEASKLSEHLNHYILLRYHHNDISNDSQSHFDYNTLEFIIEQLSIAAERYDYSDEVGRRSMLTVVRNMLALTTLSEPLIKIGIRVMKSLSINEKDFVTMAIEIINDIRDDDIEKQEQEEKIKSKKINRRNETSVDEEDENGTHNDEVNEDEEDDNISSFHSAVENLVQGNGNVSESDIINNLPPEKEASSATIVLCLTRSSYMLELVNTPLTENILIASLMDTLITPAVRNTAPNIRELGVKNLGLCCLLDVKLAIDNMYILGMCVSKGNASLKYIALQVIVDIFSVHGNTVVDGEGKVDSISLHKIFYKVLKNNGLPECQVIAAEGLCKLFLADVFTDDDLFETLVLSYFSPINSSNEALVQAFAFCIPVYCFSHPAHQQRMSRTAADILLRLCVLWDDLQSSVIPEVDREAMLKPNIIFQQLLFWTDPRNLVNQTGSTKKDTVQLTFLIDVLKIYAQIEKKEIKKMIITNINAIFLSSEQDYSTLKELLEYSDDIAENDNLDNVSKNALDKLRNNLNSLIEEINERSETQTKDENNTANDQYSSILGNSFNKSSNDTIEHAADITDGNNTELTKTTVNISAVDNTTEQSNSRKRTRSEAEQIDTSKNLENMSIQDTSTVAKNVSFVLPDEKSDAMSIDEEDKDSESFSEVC
UniProt Q06156: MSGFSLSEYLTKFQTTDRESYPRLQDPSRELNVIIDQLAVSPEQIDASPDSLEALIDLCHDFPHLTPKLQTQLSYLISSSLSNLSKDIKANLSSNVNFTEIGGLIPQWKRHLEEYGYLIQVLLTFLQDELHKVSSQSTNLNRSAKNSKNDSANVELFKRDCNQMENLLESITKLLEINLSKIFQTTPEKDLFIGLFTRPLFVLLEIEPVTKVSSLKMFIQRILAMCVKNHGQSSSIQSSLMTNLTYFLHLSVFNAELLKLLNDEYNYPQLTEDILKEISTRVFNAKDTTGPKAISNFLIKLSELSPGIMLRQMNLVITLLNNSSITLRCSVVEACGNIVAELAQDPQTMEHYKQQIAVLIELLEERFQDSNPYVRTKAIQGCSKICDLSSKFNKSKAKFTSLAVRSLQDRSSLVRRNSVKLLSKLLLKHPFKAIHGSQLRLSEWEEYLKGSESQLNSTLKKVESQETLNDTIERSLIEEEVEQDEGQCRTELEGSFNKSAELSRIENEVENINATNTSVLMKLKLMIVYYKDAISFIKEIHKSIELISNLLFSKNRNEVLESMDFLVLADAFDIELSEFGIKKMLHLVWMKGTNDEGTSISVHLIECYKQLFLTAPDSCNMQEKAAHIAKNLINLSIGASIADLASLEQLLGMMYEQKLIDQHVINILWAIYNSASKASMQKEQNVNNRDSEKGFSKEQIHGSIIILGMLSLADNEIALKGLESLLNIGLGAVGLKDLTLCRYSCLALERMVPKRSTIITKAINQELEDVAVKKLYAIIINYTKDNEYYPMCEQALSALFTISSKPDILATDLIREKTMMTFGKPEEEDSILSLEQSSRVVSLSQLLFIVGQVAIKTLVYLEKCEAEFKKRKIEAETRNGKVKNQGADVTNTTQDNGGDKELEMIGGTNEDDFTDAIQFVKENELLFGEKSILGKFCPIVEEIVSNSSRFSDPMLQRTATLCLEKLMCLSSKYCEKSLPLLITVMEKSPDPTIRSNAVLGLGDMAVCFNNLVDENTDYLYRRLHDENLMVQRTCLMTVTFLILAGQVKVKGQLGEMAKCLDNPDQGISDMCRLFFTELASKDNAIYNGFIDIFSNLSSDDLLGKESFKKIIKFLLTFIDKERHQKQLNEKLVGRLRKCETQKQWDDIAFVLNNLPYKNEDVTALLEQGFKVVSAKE

Target: budding yeast condensin holoenzyme (heteropentamer of Smc2, Smc4, Brn1, Ycg1 and Ycs4) (budding yeast) (UniProt P38989+Q12267+P38170+Q06680+Q06156)
Assay: condition: only the pooled monomeric SEC fractions, kept at 4 °C for 2 hours and re-run; SEC; terminal fractions of the monomeric peak pooled, concentrated, kept at 4 °C for 2 hours and re-run on the same Superose 6 column; in a further run monomer incubated with or without 1 mM ATP at 4 °C for 16 hours (no significant effect of ATP); both purified

binding: no binding
Substance: budding yeast condensin holoenzyme (heteropentamer of Smc2, Smc4, Brn1, Ycg1 and Ycs4) (from UniProt P38989 1-1170; Q12267 1-1418; P38170 1-754; Q06680 1-1035; Q06156 1-1176) (complex)
